{"source": "PubChem BioAssay AID720533", "about": "(National Center for Advancing Translational Sciences (NCATS), 2013)", "note": "Screen size: about 18,000 compounds; about 750 (4.2%) were called active. The inconclusive results got no clear call from the source; some entries with a clear call stand among them for comparison. Calls follow the shape of the full dose curve; tested in HEK293 cells. A potency beside an inconclusive call is a rough fit, not a confirmed value. % is scaled to controls: 0 for no effect and ±100 for the full control effect; potency is read from the fitted curve at half-maximal effect."}
{"assay": "qHTS for Inhibitors of binding or entry into cells for Lassa Virus", "conditions": "Lassa virus pseudotyped entry inhibition, cell-based qHTS; activity change, negative = inhibition: at 49.2 µM (top of the series) unless noted"}
{"smiles": "O=C(NCC1Cc2cc(F)cc(-c3cnccn3)c2O1)c1cccc(-c2ccccc2F)c1", "note": "(configuration not stated)", "Potency": "inconclusive: 22.4 µM [inhibitor, single point]"}
{"smiles": "C[C@H](/C=C/[C@H](C)C(C)(C)O)[C@H]1CC[C@H]2/C(=C/C=C3C[C@@H](O)C[C@H](O)C3)CCC[C@]12C", "Potency": "inconclusive: 28.2 µM [inhibitor, partial curve]"}
{"smiles": "CCC(C)(C)C(=O)OC1CC(C)C=C2C=CC(C)C(CCC3CC(O)CC(=O)O3)C21", "note": "(configuration not stated)", "activity change, negative = inhibition": "inactive: 2.98%"}
{"smiles": "C[C@@H]1O[C@@H](OC[C@H]2O[C@@H](Oc3cc(O)c4c(c3)O[C@H](c3ccc(O)c(O)c3)CC4=O)[C@H](O)[C@@H](O)[C@@H]2O)[C@H](O)[C@H](O)[C@H]1O", "activity change, negative = inhibition": "inactive: -8.36%"}
{"smiles": "COc1cc(C2c3cc4c(c(O)c3CC3COC(=O)C32)OCO4)cc(OC)c1OC", "note": "(configuration not stated)", "Potency": "inconclusive: 0.316 µM [inhibitor, full curve, poor fit]"}
{"smiles": "CC[C@@H](CO)NC(=O)[C@@H]1C=C2c3cccc4[nH]cc(c34)C[C@H]2N(C)C1", "Potency": "inconclusive: 35.5 µM [inhibitor, single point]"}
{"smiles": "O=C(c1n[nH]c2c1CCCC2)N1CCOc2ccc(C(O)C(c3ccccc3)c3ccccc3)cc2C1", "note": "(configuration not stated)", "Potency": "inconclusive: 28.2 µM [inhibitor, single point]"}
{"smiles": "C[C@@H]1CCC2[C@@H](C)[C@@H](O)O[C@@H]3O[C@@]4(C)CC[C@@H]1[C@@]23OO4", "note": "(some centres not stated)", "Potency": "active: 0.631 µM"}
{"smiles": "COc1ccccc1-c1ccc2ncnc(N3CCN(C)CC3)c2c1", "Potency": "inconclusive: 35.5 µM [inhibitor, single point]"}
{"smiles": "CC1=C2[C@@H](O)[C@H]([C@@H](C)C(=O)NCCC(C)C)CC[C@@]2(C)C=CC1=O", "Potency": "inconclusive: 35.5 µM [inhibitor, single point]"}
{"smiles": "O=C(CCCN1CCC(O)(c2ccc(Cl)cc2)CC1)c1ccc(F)cc1", "Potency": "inconclusive: 35.5 µM [inhibitor, single point]"}
{"smiles": "CNCCC=C1c2ccccc2C=Cc2ccccc21", "Potency": "inconclusive: 14.1 µM [inhibitor, single point]"}
{"smiles": "COc1ccccc1C1CN(Cc2cccc(OCCO)c2)Cc2ccccc2O1", "note": "(configuration not stated)", "activity change, negative = inhibition": "inactive: -8.88%"}
{"smiles": "C[C@@H]1CN(Cc2ccc3c(c2)CN(Cc2nc(-c4ccccc4)cs2)CCO3)C[C@H](C)O1", "activity change, negative = inhibition": "inactive: -5.52%"}
{"smiles": "CCC[CH2][Sn][CH2]C=C[C@@H]1C[C@@H](CCOCc2ccc(OC)cc2)OP(=O)(O)O1", "activity change, negative = inhibition": "inactive: 32.3%"}
{"smiles": "CO/N=C(\\C(=O)N[C@@H]1C(=O)N2C(C(=O)O)=C(CSC(=O)c3ccco3)CS[C@H]12)c1csc(N)n1", "activity change, negative = inhibition": "inactive: -9.07%"}
{"smiles": "CCCCCCN1C[C@@H](n2cc(-c3ccc(F)cc3)nn2)[C@H](O)C[C@H]1c1ccc(OC)cc1", "Potency": "inconclusive: 35.3 µM [inhibitor, single point]"}
